Results are given in words; binding and its absence hold for the method and conditions named. A result given as binding can be weak or reduced; the word gives no strength.
Target: rat DKK1 (rat)
Assay: solution equilibrium titration (SET)

- binding: binds
B1: anti-DKK1/4 antibody (antibody, V domains shown)
VH: QVQLVESGGGLVQPGGSLRLSCAASGFTFSSYWMSWVRQAPGKGLEWVSGISYSGSNTHYADSVKGRFTISRDNSKNTLYLQMNSLRAEDTAVYYCARMGIDLDYWGQGTLVTVSS
VL: DIALTQPASVSGSPGQSITISCTGTSSDVGGFNYVSWYQQHPGKAPKLMIHDGSNRPSGVSNRFSGSKSGNTASLTISGLQAEDEADYYCQSWDVSPITAVFGGGTKLTVLG
